For at least one compound, name, drawing or mass did not settle the structure.
Columns and labels:
[1] = DPPH anti-oxidant assay (decrease in DPPH absorption at 517 nm); assay type: biochemical; conditions: for A517nm: mean ± SEM, n = 3, DPPH alone 1.2
Description: To examine anti-oxidant effect, DPPH (2,2-diphenyl-1-picryl-hydrazyl radical), a stable free radical, was dissolved in ethanol to make a 100 µM solution. A compound was reacted with DPPH or ethanol. After incubation for 30 min, relative decrease in DPPH absorption at 517 nm was measured by a spectrophotometer.

[2] = system: Mouse cortical cell cultures; experiment: NMDA neurotoxicity in cortical cell cultures (LDH release); assay type: cell-based; conditions: 300 µM NMDA, in words
Description: (§1) Primary cortical cell cultures from embryonic mice were prepared and used to examine neuroprotective action of compounds. Mouse cortical cell culture system has been extensively used to study mechanisms and pharmacological intervention of neuronal death in neurological diseases. In brief, mouse cerebral cortices were removed from brains of the 15 day-old-fetal mice, in accordance with a protocol approved by our institutional animal care committee. […] After 7 days in vitro (DIV 7), cultures were shifted into a growth medium identical to the plating medium but lacking fetal serum. At DIV 7 - 9, […] cytosine arabinofuranoside was included to halt overgrowth of glia. Mixed cultures of neurons and glia were then fed twice a week.

[3] = system: Mouse cortical cell cultures; experiment: Fe^2+-induced free radical neurotoxicity in cortical cell cultures (LDH release); assay type: cell-based; conditions: continuous 50 µM Fe^2+, in words
Description: as §1

[4] = system: Mouse cortical cell cultures; experiment: BSO-induced free radical neurotoxicity in cortical cell cultures (LDH release); assay type: cell-based; conditions: 1 µM compound; 10 mM BSO; in words
[5] = system: Mouse cortical cell cultures; experiment: Zn^2+ neurotoxicity in cortical cell cultures (LDH release); assay type: cell-based; conditions: 100 - 300 µM compound; 300 µM Zn^2+ for 30 min; in words
Description: as §1

O=C(O)c1cc(NCc2c(F)c(F)c(F)c(F)c2F)ccc1O [PBAS, 5-(pentafluorobenzyl)aminosalicylic acid]
A517nm ([1]; 1 µM compound reacted with 100 uM DPPH in ethanol for 30 min): 1.07±0.07
A517nm ([1]; 3 µM compound reacted with 100 uM DPPH in ethanol for 30 min): 1.01±0.07
A517nm ([1]; 10 µM compound reacted with 100 uM DPPH in ethanol for 30 min): 0.71±0.09
A517nm ([1]; 30 µM compound reacted with 100 uM DPPH in ethanol for 30 min): 0.21±0.04
A517nm ([1]; 100 µM compound reacted with 100 uM DPPH in ethanol for 30 min): 0.15±0.02
A517nm ([1]; 300 µM compound reacted with 100 uM DPPH in ethanol for 30 min): 0.16±0.01
direct anti-oxidant property (levels of DPPH) ([1]; result in words): reduced levels of DPPH
effect on NMDA-induced neuronal death ([2]; 100 - 1000 µM compound): reduced NMDA-induced neuronal death in a dose-dependent manner
effect on NMDA-induced neuronal death ([2]; increasing doses up to 1 mM): completely blocked
effect on Fe^2+-induced neuronal death ([3]; 1 µM compound): significantly reduced
effect on Fe^2+-induced neuronal death ([3]; 3 µM compound): near completely blocked
effect on neuronal death following exposure to BSO [4]: blocked
effect on Zn^2+ neurotoxicity [5]: attenuated
